No constants are given. Whether binding was seen depends on the method and setting. Binding seen in cells or lysates may run through a third protein. Binding can be weak; no strength is given. Sequences can lack the tags named with a protein.
Target: T1, BVES-myc (Blood Vessel Epicardial Substance) (human) (UniProt Q8NE79)
T1 sequence: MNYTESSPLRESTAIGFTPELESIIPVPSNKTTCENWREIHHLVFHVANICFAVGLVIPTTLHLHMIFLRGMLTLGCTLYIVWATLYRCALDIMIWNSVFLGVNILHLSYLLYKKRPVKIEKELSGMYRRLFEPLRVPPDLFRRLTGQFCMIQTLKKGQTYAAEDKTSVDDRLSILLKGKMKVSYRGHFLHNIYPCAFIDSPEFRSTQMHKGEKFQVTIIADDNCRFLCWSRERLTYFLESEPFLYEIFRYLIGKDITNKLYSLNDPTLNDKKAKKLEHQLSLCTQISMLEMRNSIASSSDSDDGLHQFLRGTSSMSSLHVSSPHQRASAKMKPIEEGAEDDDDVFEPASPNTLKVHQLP
Assay: co-IP; mapping with truncation or deletion constructs of ANO5 and BVES; BVES-myc as bait for the ANO5 fragments; transfected cells (cell line not stated); RIPA lysis buffer, 4 °C

- binding: binds
Substance: N terminal fragment of ANO5 (domain or fragment)
